We go through one molecule from publication PMC10627786.

Experiment [1] deals with T1, PDZD8 fused with BirA*-FLAG (BioID bait) (human) (UniProt Q8NEN9).
T1 sequence: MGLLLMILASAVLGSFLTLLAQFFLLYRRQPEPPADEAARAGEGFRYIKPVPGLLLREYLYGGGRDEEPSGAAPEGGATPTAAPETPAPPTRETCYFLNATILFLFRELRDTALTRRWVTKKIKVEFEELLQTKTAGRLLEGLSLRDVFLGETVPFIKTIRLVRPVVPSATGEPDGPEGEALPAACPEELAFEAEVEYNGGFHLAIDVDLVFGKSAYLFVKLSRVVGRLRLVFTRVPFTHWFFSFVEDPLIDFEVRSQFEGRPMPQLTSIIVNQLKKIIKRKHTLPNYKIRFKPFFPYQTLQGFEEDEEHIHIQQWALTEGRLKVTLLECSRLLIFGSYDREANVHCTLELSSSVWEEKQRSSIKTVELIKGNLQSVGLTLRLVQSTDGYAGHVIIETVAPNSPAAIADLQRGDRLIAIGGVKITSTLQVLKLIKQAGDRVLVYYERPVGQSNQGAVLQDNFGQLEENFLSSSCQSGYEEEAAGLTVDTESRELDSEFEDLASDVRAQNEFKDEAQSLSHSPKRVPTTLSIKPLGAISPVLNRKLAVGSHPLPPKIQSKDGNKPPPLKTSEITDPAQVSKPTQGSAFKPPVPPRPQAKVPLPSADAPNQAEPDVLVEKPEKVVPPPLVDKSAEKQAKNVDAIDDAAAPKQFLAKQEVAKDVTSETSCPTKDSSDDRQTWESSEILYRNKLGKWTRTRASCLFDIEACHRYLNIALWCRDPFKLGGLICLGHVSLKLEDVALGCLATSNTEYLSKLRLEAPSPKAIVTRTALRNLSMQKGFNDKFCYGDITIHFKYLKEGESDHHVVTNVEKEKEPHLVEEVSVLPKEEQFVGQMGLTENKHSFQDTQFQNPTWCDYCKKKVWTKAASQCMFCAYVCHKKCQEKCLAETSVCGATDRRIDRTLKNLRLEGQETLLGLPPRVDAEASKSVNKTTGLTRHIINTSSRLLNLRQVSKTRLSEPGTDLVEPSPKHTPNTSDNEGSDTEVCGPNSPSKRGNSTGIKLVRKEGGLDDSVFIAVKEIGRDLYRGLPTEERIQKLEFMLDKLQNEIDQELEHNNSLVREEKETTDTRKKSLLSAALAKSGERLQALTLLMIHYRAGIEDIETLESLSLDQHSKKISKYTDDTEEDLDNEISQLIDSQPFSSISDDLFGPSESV
Nature of the experiment: proximity labelling; BioID in stable inducible Flp-In T-REx 293 cells expressing BirA*-FLAG baits; mass spectrometry of biotinylated preys; SAINTexpress, two biological replicates per bait, 50 negative control runs, BFDR threshold 1%.

For experiment [2], the target named is T2, TEX2 fused with BirA*-FLAG (BioID bait) (human) (UniProt Q8IWB9).
T2 sequence: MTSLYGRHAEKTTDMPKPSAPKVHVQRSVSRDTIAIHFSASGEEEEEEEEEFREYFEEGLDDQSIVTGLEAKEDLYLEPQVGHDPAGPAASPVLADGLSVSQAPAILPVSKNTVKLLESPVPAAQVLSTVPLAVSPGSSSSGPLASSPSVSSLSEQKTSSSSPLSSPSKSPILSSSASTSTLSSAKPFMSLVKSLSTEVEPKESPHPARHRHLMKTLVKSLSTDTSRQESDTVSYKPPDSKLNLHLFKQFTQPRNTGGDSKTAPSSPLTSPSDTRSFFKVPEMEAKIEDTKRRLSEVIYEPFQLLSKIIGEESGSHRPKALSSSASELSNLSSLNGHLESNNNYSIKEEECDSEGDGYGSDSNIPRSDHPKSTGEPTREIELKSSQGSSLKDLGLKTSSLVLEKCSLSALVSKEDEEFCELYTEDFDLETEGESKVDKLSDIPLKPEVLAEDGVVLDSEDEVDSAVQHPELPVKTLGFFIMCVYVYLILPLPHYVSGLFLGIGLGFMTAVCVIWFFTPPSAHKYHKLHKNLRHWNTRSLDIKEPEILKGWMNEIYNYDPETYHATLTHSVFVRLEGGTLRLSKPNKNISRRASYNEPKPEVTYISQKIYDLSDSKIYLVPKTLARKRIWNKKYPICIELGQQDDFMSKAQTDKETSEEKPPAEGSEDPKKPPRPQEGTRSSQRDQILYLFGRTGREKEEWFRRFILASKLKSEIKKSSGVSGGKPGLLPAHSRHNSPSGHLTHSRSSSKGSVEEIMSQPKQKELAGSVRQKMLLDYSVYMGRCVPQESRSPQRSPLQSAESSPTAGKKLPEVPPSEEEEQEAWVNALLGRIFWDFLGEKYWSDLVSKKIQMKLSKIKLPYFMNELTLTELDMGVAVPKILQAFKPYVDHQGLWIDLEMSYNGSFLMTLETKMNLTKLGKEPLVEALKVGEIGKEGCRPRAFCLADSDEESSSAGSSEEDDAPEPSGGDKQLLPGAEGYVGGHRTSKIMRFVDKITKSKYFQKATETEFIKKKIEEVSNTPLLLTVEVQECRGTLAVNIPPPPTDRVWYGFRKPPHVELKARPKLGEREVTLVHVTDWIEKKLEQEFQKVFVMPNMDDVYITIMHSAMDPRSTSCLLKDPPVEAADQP
Described as above.

Results are given in words; binding and its absence hold for the method and conditions named. Binding seen in cells or lysates may run through a third protein. A yes stands for co-enrichment or nearness to the bait. Other partners may have been found. A no says only that the protein was not detected with the bait. Tags and fused reporters may be left off the sequences shown.

B1: SYNJ2BP (endogenous prey in BioID) (protein, UniProt P57105 1-145)
chain: MNGRVDYLVTEEEINLTRGPSGLGFNIVGGTDQQYVSNDSGIYVSRIKENGAAALDGRLQEGDKILSVNGQDLKNLLHQDAVDLFRNAGYAVSLRVQHRLQVQNGPIGHRGEGDPSGIPIFMVLVPVFALTMVAAWAFMRYRQQL
With B1, the binding entry in experiment [1] and in experiment [2] was “no binding” each time.
